Read-outs that look alike come from different tables or passages of the source. No constants are given. Whether binding was seen depends on the method and setting. For some assays here: Binding calls can cover weak binding; strength is not graded here. For some assays here: Sequences can lack the tags named with a protein.
Legend:
SUMO2 [1] = molecular target: SUMO2 (UniProt P61956); test: pull-down; SUMO1-, SUMO2- or SUMO3-agarose incubated with the recombinant protein for 2 h at room temperature in 50 mM HEPES pH 8.0, 1 mM EDTA, 1 mM DTT, 0.05% C12E10; washed beads boiled, immunoblot; both purified
SUMO2 [2] = molecular target: SUMO2 (UniProt P61956); test: as above; remark: listed apart in the source

By UniProt entry, the sequences of proteins in these tests, tags left out. Where a name states a change or a piece, a line headed by the entry shows the natural chain unless it says otherwise.
UniProt P61956: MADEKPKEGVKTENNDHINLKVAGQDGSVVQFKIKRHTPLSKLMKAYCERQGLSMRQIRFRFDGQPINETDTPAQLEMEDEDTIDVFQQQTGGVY
UniProt P04897: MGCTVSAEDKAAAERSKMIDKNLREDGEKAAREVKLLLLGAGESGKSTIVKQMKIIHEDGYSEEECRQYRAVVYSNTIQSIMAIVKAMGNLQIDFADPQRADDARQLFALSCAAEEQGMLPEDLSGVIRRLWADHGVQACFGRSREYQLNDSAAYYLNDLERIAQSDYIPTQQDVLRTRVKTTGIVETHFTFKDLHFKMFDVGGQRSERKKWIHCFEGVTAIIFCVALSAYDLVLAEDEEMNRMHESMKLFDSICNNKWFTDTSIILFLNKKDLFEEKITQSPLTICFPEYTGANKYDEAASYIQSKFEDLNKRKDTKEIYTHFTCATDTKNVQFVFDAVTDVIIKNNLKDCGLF

Molecule | binding (SUMO2 [1]) | binding (SUMO2 [2])
Gαi2 subunit (from UniProt P04897 1-355) | no binding | 
RGSZ2 (regulator of G protein signaling 17), recombinant, GST-free (protein, UniProt Q9QZB0 1-210) MRKRQQSQNEGTQAVSQAPGNQRPNNTCCFCWCCCCSCSCLTVRNEERGDSSGRSPHTTKMESIQVLEECQNPTADEVLSWSQNFDKMMKTPAGRNLFREFLRTEYSEENLLFWLACEDLKKEQNKKAVEEKARMIYEDYISILSPKEVSLDSRVREVINRSLLDPSPHMYEDAQLQIYTLMHRDSFPRFLNSQIYKAFVESTTSCTSES |  | binds

Reference: paper PMC3232247
